Results published in the supplement of paper PMC3545927.
Only a part is listed here, and it is no random draw.

Sequences of proteins named here, by UniProt entry; tags and fusion partners are left off.
furin, P09958, UniProt P09958, whole entry: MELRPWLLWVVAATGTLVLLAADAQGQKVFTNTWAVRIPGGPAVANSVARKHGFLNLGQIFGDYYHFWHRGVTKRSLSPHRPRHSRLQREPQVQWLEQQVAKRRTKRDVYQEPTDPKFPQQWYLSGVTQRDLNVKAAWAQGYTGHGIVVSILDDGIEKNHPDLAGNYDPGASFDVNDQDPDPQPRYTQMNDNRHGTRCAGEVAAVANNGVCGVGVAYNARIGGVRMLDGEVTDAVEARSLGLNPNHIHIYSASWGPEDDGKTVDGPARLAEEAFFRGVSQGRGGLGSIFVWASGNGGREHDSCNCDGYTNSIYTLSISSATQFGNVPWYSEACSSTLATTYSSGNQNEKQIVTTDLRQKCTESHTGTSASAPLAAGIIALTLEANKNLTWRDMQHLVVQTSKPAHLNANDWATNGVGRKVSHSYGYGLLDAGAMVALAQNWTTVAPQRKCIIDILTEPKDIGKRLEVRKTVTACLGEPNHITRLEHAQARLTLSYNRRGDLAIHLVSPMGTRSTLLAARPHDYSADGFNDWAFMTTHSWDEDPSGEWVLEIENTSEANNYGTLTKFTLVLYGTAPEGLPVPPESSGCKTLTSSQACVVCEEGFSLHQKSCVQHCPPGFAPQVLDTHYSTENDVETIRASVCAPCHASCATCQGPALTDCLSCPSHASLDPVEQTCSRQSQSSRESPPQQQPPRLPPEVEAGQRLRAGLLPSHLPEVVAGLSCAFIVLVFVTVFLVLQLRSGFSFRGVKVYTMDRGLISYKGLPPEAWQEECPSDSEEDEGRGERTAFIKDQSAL

Biological target: furin, P09958
Assay: furin cleavage Z-score vs untreated control; higher = more cleavage, active = 3.5 or more, inactive = 1 or less, 8 variable residues between constant flanks
Method in brief: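 Purified furin digested bead-held 8-mer peptide–cDNA fusions at 1:10 enzyme:substrate in 0.01 ml of 50 mM HEPES pH 7.5 with CaCl2 and NaCl for 7.5, 15 or 30 min. The cleavage Z-score compares sequencing counts of released DNA with furin-free reactions on a log scale, with lowess adjustment and median absolute deviation scaling.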

Sequence	furin cleavage Z-score (7.5 min)	furin cleavage Z-score (15 min)	furin cleavage Z-score (30 min)
CACTRGVAKAAGNASASA [HC753]	inactive: -1.87	inactive: -0.584	inactive: -0.853
CARVKRGWVWAGNASASA [FS-2101]		active: 4.37	active: 8.77
CARIKRSAPLAGNASASA [FS-2954]	active: 11.4	active: 11.4	active: 10.2
CAVVCCSKSYAGNASASA [HC2054]	1.39	1.52	1.41
CARPSRPPRGAGNASASA [FS-1564]	1.46	2.69	2.63
CAGSYRCVRDAGNASASA [FS-1004]	1.73	1.33	2.08
CAYVGGPLTNAGNASASA [HC1501]	inactive: -0.238	inactive: -0.463	inactive: -0.523
CAPEARLRRVAGNASASA [FS-839]	inactive: 0.0356	3.09	2.39
CARKKRKDAKAGNASASA [FS-3221]	1.6	2.26	2.33
CAKNYREQRSAGNASASA [FS-1636]	3.03	2.4	3.3
CARVMRWNSKAGNASASA [FS-3120]	inactive: -0.31	inactive: 0.804	2.88
CARIPRSREVAGNASASA [FS-2151]	1.64	3.44	3.3
CAHHCRLRRSAGNASASA [FS-1592]	1.96	1.5	1.02
CARQRREKGAAGNASASA [FS-1833]	2.19	3.12	2.96
CAVKKRSVSEAGNASASA [FS-3139]	1.35	1.15	1.17
CACGARLRRSAGNASASA [FS-13]	2.59	1.09	1.82
CARQRRQERRAGNASASA [FS-2293]	1.02	1.7	2.99
CAVKARIKRMAGNASASA [FS-310]	active: 8.88	active: 10.6	active: 7.99
CALKGRPARFAGNASASA [FS-1135]	1.12	active: 3.63	active: 3.8

Sequence	furin cleavage Z-score (7.5 min)	furin cleavage Z-score (15 min)	furin cleavage Z-score (30 min)
CAANHVVKRDAGNASASA [FS-642]	active: 8.87	active: 11.8	active: 8.5
CAQAWRVRRLAGNASASA [FS-1388]	1.31	1.87	2.52
CARLCRKRRCAGNASASA [FS-1478]	active: 5.9	active: 6.48	active: 7.28
CAEAACNWTRAGNASASA [HC481]	1.17	3.42	1.92
CARDWRERRNAGNASASA [FS-1394]	2.79	1.81	2.07
CAKPARKYRFAGNASASA [FS-812]	2.11	2.57	2.1
CAERVTSTWVAGNASASA [HC2173]	inactive: -0.173	inactive: -0.632	inactive: -2.09
CARSRRAYLAAGNASASA [FS-3093]	1.52	2.71	3.05
CAGAGRVKRGAGNASASA [FS-778]	1.42	1.55	1.16
CARWRRTKGAAGNASASA [FS-1873]	inactive: -0.133	inactive: -1.53	inactive: -0.0248
CARYYRDAAGAGNASASA [FS-1812]	2.19	3.06	1.79
CARRNRSTSTAGNASASA [FS-2072]	active: 4.22	active: 6.96	active: 4.29
CAPHTRLRRSAGNASASA [FS-1382]	2.35	2.68	2.05
CARMKRKIERAGNASASA [FS-2495]	2.72	2.2	3.48
CARKIRTVGNAGNASASA [FS-1726]	active: 5.44	active: 7.79	active: 7.77
CAEVPCHRFSAGNASASA [HC2387]	1.19	1.4	1.45
CARQKRSSEAAGNASASA [FS-3037]	active: 9.89	active: 9.51	active: 6.34
CAVVCCTMSYAGNASASA [HC116]	2.31	2.04	1.7

Whole records from above. Values in the order: furin cleavage Z-score (7.5 min)	furin cleavage Z-score (15 min)	furin cleavage Z-score (30 min)
CAEAACNWTRAGNASASA [HC481] is listed with 1.17	3.42	1.92
CARKIRTVGNAGNASASA [FS-1726] is listed with active: 5.44	active: 7.79	active: 7.77
CARWRRTKGAAGNASASA [FS-1873] is listed with inactive: -0.133	inactive: -1.53	inactive: -0.0248
